Results from cells or extracts need not show a direct contact. For some assays here: Negatives hold for the conditions tested. For some assays here: The exact form of at least one protein or probe is not confirmed.
How the values were obtained:
[1] = target: Transferrin receptor 1 (TfR1, CD71), endogenous on cells (Homo sapiens) (UniProt P02786); experiment: flow cytometry; details: protein on the cell surface
[2] = target: Cellular nucleic acid-binding protein (CNBP, ZNF9), Jurkat membrane extract (Homo sapiens) (UniProt P62633); experiment: pull-down; details: mass spectrometry of band f, 20% coverage; protein in an extract; label: 5'-FAM (with added 5' T), 5'-Cy5 or 5'-biotin; single-stranded DNA; variant of JBA8.1
[3] = target: Transferrin receptor 1 (TfR1, CD71), Jurkat membrane extract (Homo sapiens) (UniProt P02786); experiment: pull-down; details: protein in an extract, 5'-Cy5 or 5'-biotin, single-stranded DNA
[4] = target: Transferrin receptor 1 (TfR1, CD71), endogenous on cells (Homo sapiens) (UniProt P02786); experiment: competition with a labelled probe; details: not by antibody CY1G4, protein on the cell surface, 5'-Cy5 or 5'-biotin, single-stranded DNA
[5] = Jurkat and H9 cells, all binding lost, single-stranded DNA, variant of tJBA8.1

Chains of the proteins cited; added tags and fusions are not shown. Residues count along the entry.
UniProt P62633, 2-177: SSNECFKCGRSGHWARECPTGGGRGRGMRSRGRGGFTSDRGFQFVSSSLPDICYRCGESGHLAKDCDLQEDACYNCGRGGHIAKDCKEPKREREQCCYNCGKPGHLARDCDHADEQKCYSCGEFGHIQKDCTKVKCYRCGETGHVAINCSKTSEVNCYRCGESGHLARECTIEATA

## GCAGCAGCGTAAAGGAAGTGTTTGTGCGGTGTGGAGTGCGCGCGCTGCTGCGCAGAAGAAGAAGAAGAAGAAGAAGAAGAACG / CGTTCTTCTTCTTCTTCTTCTTCTTCTTCTGC [mtJBA8.26.DLO annealed to fluorescein complement]
[1]; Raji cells, minimal association, label: fluorescein on complementary strand, folded or branched DNA
  binding result: no binding

## GCAGCAGCGTAAAGGGGGTGTTTGTGCGGTGTGGAGTGCGCGCGCTGCTGCGCAGAAGAAGAAGAAGAAGAAGAAGAAGAACG / CGTTCTTCTTCTTCTTCTTCTTCTTCTTCTGC [tJBA8.26.DLO annealed to fluorescein complement]
[1]; Raji cells, binding at 4 C and internalization at 37 C, label: fluorescein on complementary strand, folded or branched DNA
  binding result: binds

## GCAGCAGCGTAAAGGGGCTGTTTGTGCGGTGTGGAGTGCGCGTGCTGCTGC [tJBA8.1 GGGGC]
[1]; [5]
  binding result: no binding

## GCAGCAGCGTAAAGGGAGTGTTTGTGCGGTGTGGAGTGCGCGTGCTGCTGC [tJBA8.1 GGGAG]
[1]; [5]
  binding result: no binding

## GCAGCAGCGTAAAGGGGGTGTTTGTGCGGTGTGGAGTGCGCGTGCTGCTGC [tJBA8.1]
[2]
  binding result: binds
[3]; mass spectrometry 58-62% coverage, label: 5'-FAM (with added 5' T), variant of JBA8.1
  binding result: binds
[4]; competed by holo-transferrin: about 50% on Jurkat, over 90% on H9, label: 5'-FAM (with added 5' T), variant of JBA8.1
  binding result: binds

## ACTCATAGGGTTAGGGGCTGCTGGCCAGATACTCAGATGGTAGGGTTACTATGAGC [XQ-2d]
[3]; Western blot, HFE co-precipitated with TfR1, label: 5'-FAM
  binding result: binds
[4]; competed by holo-transferrin (over 90% on H9), label: 5'-FAM
  binding result: binds

## GCAGCAGCGTAAAGGAGGTGTTTGTGCGGTGTGGAGTGCGCGTGCTGCTGC [tJBA8.1 GGAGG]
[1]; [5]
  binding result: no binding

## ATCCAGAGTGACGCAGCAAATTCCAAACTCGAGTAAGCGTAGAGCCTCTCATCGCCTCAATAATGGACACGGTGGCTTAGT [RANL]
[1]; Jurkat cells, control, label: 5'-FAM, 5'-Cy5 or 5'-biotin, single-stranded DNA
  binding result: no binding

Reference: patent publication US12760268
